For 52 sequences, Kd results are on record in article PMC4824076, “Integrated microfluidic approach for quantitative high-throughput measurements of transcription factor binding affinities”.

pKd: −log10 of the molar value. Tags and fusion partners may be left off the protein sequences shown. For some of these results: For at least one entry, the source does not settle the construct or the ends of the probe.

In the first data set the target is T1, ATF1 (Homo sapiens) (UniProt P18846).
T1 sequence (looked up, limits assumed): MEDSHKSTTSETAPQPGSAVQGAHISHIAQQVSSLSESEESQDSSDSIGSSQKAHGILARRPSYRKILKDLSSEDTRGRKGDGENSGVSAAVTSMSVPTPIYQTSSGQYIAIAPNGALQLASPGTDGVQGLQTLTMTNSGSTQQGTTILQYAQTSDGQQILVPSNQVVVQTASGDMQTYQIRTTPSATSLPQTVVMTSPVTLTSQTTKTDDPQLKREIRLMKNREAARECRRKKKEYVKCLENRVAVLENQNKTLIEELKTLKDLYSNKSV
The data set is described as follows: binding assay. The following applies: MITOMI-type chip (QPID); rabbit reticulocyte lysate, 1 h; wash 50 mM HEPES; temperature not stated; DNA spotted at 0.0156-2 uM; protein translated in vitro; protein details: N-cMyc, C-His6 (kept); label: Cy5 on the primer strand.
On to “CGCAAATGGAGTCGCAGCCGTCAACTCGCCCTCGGCCTCTCCGGCGGTATGAC (double strand) [41.ATF3_CRE_hs_27]”, for which the pKd – broadly, the Kd on a negative log10 scale, so that one unit is a factor of ten – was 6.53.
Same read-out and setting: then “CGCATCCGCCACCGGAGACGTCACAGCTAAAGCCACGCCTCCGGCGGTATGAC (double strand) [53.ATF1_CRE_hs_5]”, with 6.45.
Regarding “CGCCAGACTTTTCGAGACCGTCAATTGGTCGTAGTCCCCTCCGGCGGTATGAC (double strand) [51.ATF1_CRE_hs_3]”, the Kd (as a rule, a measure of binding affinity in units of concentration) was greater than 2000 nM.
The sequence “CGCCAGTGAGATCCCATACGTCACGTGCTTTGCGATTTCTCCGGCGGTATGAC (double strand) [58.ATF1_CRE_hs_10]” showed a pKd of 6.71.
Consider “CGCCATCACGTGGGCCAGCGTCACATGGGCCAGCATCACTCCGGCGGTATGAC (double strand) [40.ATF3_CRE_hs_26]”, for which the pKd is 6.12.
Still for that read-out and setting: under “CGCCCCAGCAACTGTCGACGTCACACGACCTGGGCCTCCTCCGGCGGTATGAC (double strand) [66.ATF1_CRE_hs_18]” stands 6.86.
Same read-out and setting: then “CGCGACGCGAGAGGCTCGCGTCATCCTGCAGCGCCGACCTCCGGCGGTATGAC (double strand) [106.ATF1_ATF3_CRE_hs_24]”, with 6.54; and “CGCGACTTTACGACACTTCGTCAAGTCAGCAGGTCGTACTCCGGCGGTATGAC (double strand) [27.ATF3_CRE_hs_13]”, with 5.94; and “CGCGCCCGGCGCGGCCCCTGACGTCACCCCTCTGCGCCACGCTCCGGCGGTATGAC (double strand) [2.ATF3_CRE_2]”, with 7.20.
“CGCGCCGTCCTGGTTTTCCGTCACCCTGGTTCTGTAGTCTCCGGCGGTATGAC (double strand) [43.ATF3_CRE_hs_29]” came in with a dissociation constant (Kd) greater than 2000 nM.
Sequence “CGCGCGCCGGTCCCCGTACGTCACCGCCCCGCGCCGGCCTCCGGCGGTATGAC (double strand) [94.ATF1_ATF3_CRE_hs_12]” showed a pKd of 6.56.
The sequence “CGCGCGCCGTCGCTATGGCGTCACTGCCCTCGCGGCCACTCCGGCGGTATGAC (double strand) [89.ATF1_ATF3_CRE_hs_7]” showed a pKd of 6.73.
Take “CGCGCGCGCGCTGACCTATGACGTCATCGGGACGTTAAGCACTCCGGCGGTATGAC (double strand) [4.ATF1_CRE_1]”: the pKd is 7.22.
The same measure, in the same setting: under “CGCGCGCGCGGCTGAAGACGTCATGGAGGGGGCTGGTGCTCCGGCGGTATGAC (double strand) [103.ATF1_ATF3_CRE_hs_21]” stands 6.17; under “CGCGCGCTCGGAGTGCTGCGTCACTCGCCACCAGGGACCTCCGGCGGTATGAC (double strand) [55.ATF1_CRE_hs_7]”, 6.92.
“CGCGCGGGAGCCGCCGGCCGTCACGTGGGAGGTCACGTCTCCGGCGGTATGAC (double strand) [18.ATF3_CRE_hs_4]” showed a Kd greater than 2000 nM.
Sequence “CGCGCTTGCCTGTGCTAACGTCAAAACGCAGCAAAACACTCCGGCGGTATGAC (double strand) [22.ATF3_CRE_hs_8]” yielded a Kd greater than 2000 nM.
For “CGCGGATAGGCCCCGGAGCGTCACAGGCACCGCCCTCTCTCCGGCGGTATGAC (double strand) [38.ATF3_CRE_hs_24]”, the pKd is 6.27.
Sequence “CGCGGCGCACGCTTAAGGCGTCACGAGTCTCGAGTTCACTCCGGCGGTATGAC (double strand) [78.ATF1_CRE_hs_30]” had a pKd of 6.12.
For “CGCGGCGCGCCCCGACAACGTCACCCGCAGACCGGCCACTCCGGCGGTATGAC (double strand) [100.ATF1_ATF3_CRE_hs_18]”, the pKd was 6.82.
With “CGCGGCGCTCCGGAAATGCGTCAGAGAACTGCCTCGAGCTCCGGCGGTATGAC (double strand) [110.ATF1_ATF3_CRE_hs_28]”, the pKd was 5.93.
Same read-out and setting: then “CGCGGCGCTGGAGGTGCGCGTCACTGTCCGCCGCCGTGCTCCGGCGGTATGAC (double strand) [102.ATF1_ATF3_CRE_hs_20]”, with 6.50.
“CGCGGCGGGGGCCTGGGCCGTCACGTGGGTGCGCCGCGCTCCGGCGGTATGAC (double strand) [26.ATF3_CRE_hs_12]”: the Kd was greater than 2000 nM.
For “CGCGGCGGTTGCGTCTTACGTCATCGAACTGCGGCCATCTCCGGCGGTATGAC (double strand) [74.ATF1_CRE_hs_26]”, the pKd was 6.97.
The sequence “CGCGGCTGCAACATTAACCGTCATCAGCGCGCCTCTTCCTCCGGCGGTATGAC (double strand) [114.ATF1_ATF3_CRE_hs_32]” gave a pKd of 6.23.
“CGCGGCTGCGGATGGAGGGCGGGCCGGGGACCTTACCACTCCGGCGGTATGAC (double strand) [125.Unbound_non_CRE_4]” had a pKd of less than 5.70.
As for “CGCGGGAGAGGTTCGTAACGTCACAGGCCTGCGACGGACTCCGGCGGTATGAC (double strand) [31.ATF3_CRE_hs_17]”, the pKd was 6.23.
Same read-out and setting: under “CGCGGGCACTTCCGATTTCGTCATCAGCACGCGCACCCCTCCGGCGGTATGAC (double strand) [113.ATF1_ATF3_CRE_hs_31]” stands 6.66; under “CGCGGGCGGTTGGAGATGCGTCACGGGGCGGGTCCCGCCTCCGGCGGTATGAC (double strand) [20.ATF3_CRE_hs_6]”, 5.87.
The same measure, in the same setting: then “CGCGGGCTTCATTCACGGCCCCCCTACCGTCCGCGTACCTCCGGCGGTATGAC (double strand) [126.Unbound_non_CRE_5]”, with less than 5.70.
The same measure, in the same setting: under “CGCGGGTAGGTGGTGCCCCGTCACGTGCCGGAATCACCCTCCGGCGGTATGAC (double strand) [17.ATF3_CRE_hs_3]” stands 6.83; under “CGCGGTCAGAGAGAACCACGTCAGCTACTGGCCAGGCTCTCCGGCGGTATGAC (double strand) [120.Unbound_CRE_hs_4]”, 6.35.
As to “CGCGGTGGCGCGGCGCGTTGACGTCATGGAGGCGGGGTGCTCTCCGGCGGTATGAC (double strand) [1.ATF3_CRE_1]”, the pKd is 7.18.
Take “CGCGTCCTTTCGATGTTGCGTCATGCAGTGCGCCGGAGCTCCGGCGGTATGAC (double strand) [86.ATF1_ATF3_CRE_hs_4]”: the pKd is 6.73.
In turn, “CGCGTCGCACGCGTTTTGCGTCAGTTGGCAAGGCACTTCTCCGGCGGTATGAC (double strand) [92.ATF1_ATF3_CRE_hs_10]” gave a Kd greater than 2000 nM.
Consider “CGCGTCGCAGAAGAATGGCGTCACAACGACTAAGTAGCCTCCGGCGGTATGAC (double strand) [87.ATF1_ATF3_CRE_hs_5]”, for which the pKd was 6.51.
On the same count and under the same terms, then “CGCGTCGCGATAAGATGGCGTCACGGCGCGCCTCGCTGCTCCGGCGGTATGAC (double strand) [30.ATF3_CRE_hs_16]”, with 6.76; and “CGCGTCGCTGCCTCCTCGCGTCATCCCTCCGCGCCGGCCTCCGGCGGTATGAC (double strand) [49.ATF1_CRE_hs_1]”, with 6.56.
The sequence “CGCGTGGAAATATAGCGCCGTCAACATCTTTTCCCCATCTCCGGCGGTATGAC (double strand) [52.ATF1_CRE_hs_4]” gave a pKd of 5.79.
Sequence “CGCGTTGCAGCGCCCAGGCGTCAGAGGCGGAGGCCCGACTCCGGCGGTATGAC (double strand) [15.ATF3_CRE_hs_1]” gave a pKd of 5.78.
On the same count and under the same terms, under “CGCTATCCCAAAACACTTTGACGTCAGGCAGAGCTGGGATGCTCCGGCGGTATGAC (double strand) [12.Unbound_CRE_3]” stands 6.69.
The sequence “CGCTCACAGCACCTCGTGCGTCACTTGGCGGCGCCGGACTCCGGCGGTATGAC (double strand) [84.ATF1_ATF3_CRE_hs_2]” gave a Kd greater than 2000 nM.
For “CGCTCGACACAAGCGCTACGTCACAAGGGTGCGCCACGCTCCGGCGGTATGAC (double strand) [85.ATF1_ATF3_CRE_hs_3]”, the pKd was 6.83.
Sequence “CGCTCGGGCCGACAGCGTCGTCACCAGCTTTTATGGGGCTCCGGCGGTATGAC (double strand) [47.ATF3_CRE_hs_33]” gave a pKd of 6.97.
In the case of “CGCTCGGTGGCCTCCAGCCGTCAAACGACGCCGGCGGTCTCCGGCGGTATGAC (double strand) [39.ATF3_CRE_hs_25]”, the Kd was greater than 2000 nM.
Still for that read-out and setting: under “CGCTCTCTGCGCGCCTCACGTCAGGGCCAAGAGCCTAGCTCCGGCGGTATGAC (double strand) [60.ATF1_CRE_hs_12]” stands greater than 2000 nM.
In turn, “CGCTGTGGCCAGGAGCTGCGTCACATGGACTGAGGAATCTCCGGCGGTATGAC (double strand) [46.ATF3_CRE_hs_32]” showed a pKd of 6.36.
On the same count and under the same terms, then “CGCTTCCACCCGTGGACTCGTCAGGGCGTGAGGACCCACTCCGGCGGTATGAC (double strand) [37.ATF3_CRE_hs_23]”, with 6.41; and “CGCTTCCGCGTCGCTACGTGACGTCAGTGCGAGCGACCCCGCTCCGGCGGTATGAC (double strand) [8.ATF1_ATF3_CRE_2]”, with 6.96.
The same measure, in the same setting: then “CGCTTGGCAGACGTCGTGCGTCATTACCAACGAGGCGCCTCCGGCGGTATGAC (double strand) [90.ATF1_ATF3_CRE_hs_8]”, with 6.23; and “CGCTTGGGCATATCTTTCTGACGTCATGAGAGTGCGATACCCTCCGGCGGTATGAC (double strand) [13.Unbound_CRE_4]”, with 7.08.
The sequence “CGCTTGTGAATTTACATGTGACGTCAGAAAGGCTCTGTAGACTCCGGCGGTATGAC (double strand) [10.Unbound_CRE_1]” had a pKd of 7.24.

The target in another data set is T2, ATF3 (Homo sapiens) (UniProt P18847).
T2 sequence (looked up, limits assumed): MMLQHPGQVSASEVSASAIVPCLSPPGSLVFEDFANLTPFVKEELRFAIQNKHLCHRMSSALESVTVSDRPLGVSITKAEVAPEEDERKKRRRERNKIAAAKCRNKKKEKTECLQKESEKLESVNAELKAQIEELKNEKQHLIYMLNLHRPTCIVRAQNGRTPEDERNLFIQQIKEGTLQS
The data set is described as follows: binding assay. The following applies: MITOMI-type chip (QPID); rabbit reticulocyte lysate, 1 h; wash 50 mM HEPES; temperature not stated; DNA spotted at 0.0156-2 uM; protein translated in vitro; protein details: N-cMyc, C-His6 (kept); label: Cy5 on the primer strand.
In turn, “CGCAAATGGAGTCGCAGCCGTCAACTCGCCCTCGGCCTCTCCGGCGGTATGAC (double strand) [41.ATF3_CRE_hs_27]” yielded a Kd greater than 2000 nM.
On the same count and under the same terms, under “CGCATCCGCCACCGGAGACGTCACAGCTAAAGCCACGCCTCCGGCGGTATGAC (double strand) [53.ATF1_CRE_hs_5]” stands greater than 2000 nM; under “CGCCAGACTTTTCGAGACCGTCAATTGGTCGTAGTCCCCTCCGGCGGTATGAC (double strand) [51.ATF1_CRE_hs_3]”, greater than 2000 nM; under “CGCCAGTGAGATCCCATACGTCACGTGCTTTGCGATTTCTCCGGCGGTATGAC (double strand) [58.ATF1_CRE_hs_10]”, greater than 2000 nM.
On the same count and under the same terms, under “CGCCATCACGTGGGCCAGCGTCACATGGGCCAGCATCACTCCGGCGGTATGAC (double strand) [40.ATF3_CRE_hs_26]” stands greater than 2000 nM; under “CGCCCCAGCAACTGTCGACGTCACACGACCTGGGCCTCCTCCGGCGGTATGAC (double strand) [66.ATF1_CRE_hs_18]”, greater than 2000 nM.
